Assay results published in the supplement of paper PMC12067093, “Discovery and optimisation of a covalent ligand for TRIM25 and its application to targeted protein ubiquitination” (Chemical Science, 2025).
The other results are listed elsewhere or left out.

By UniProt entry, the sequences of proteins in these tests, tags left out. Where a name states a change or a piece, a line headed by the entry shows the natural chain unless it says otherwise.
UniProt Q6IBS0: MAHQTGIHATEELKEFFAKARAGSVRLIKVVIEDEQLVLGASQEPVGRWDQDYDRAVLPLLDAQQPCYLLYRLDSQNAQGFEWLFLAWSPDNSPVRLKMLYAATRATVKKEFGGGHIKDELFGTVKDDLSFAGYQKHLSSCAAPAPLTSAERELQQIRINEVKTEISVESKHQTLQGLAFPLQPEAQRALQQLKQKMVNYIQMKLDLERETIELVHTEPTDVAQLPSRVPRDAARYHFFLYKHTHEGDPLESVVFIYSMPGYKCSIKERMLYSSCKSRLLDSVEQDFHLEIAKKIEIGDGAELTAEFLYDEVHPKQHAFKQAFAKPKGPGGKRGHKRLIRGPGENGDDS
UniProt O94759, whole entry, looked up: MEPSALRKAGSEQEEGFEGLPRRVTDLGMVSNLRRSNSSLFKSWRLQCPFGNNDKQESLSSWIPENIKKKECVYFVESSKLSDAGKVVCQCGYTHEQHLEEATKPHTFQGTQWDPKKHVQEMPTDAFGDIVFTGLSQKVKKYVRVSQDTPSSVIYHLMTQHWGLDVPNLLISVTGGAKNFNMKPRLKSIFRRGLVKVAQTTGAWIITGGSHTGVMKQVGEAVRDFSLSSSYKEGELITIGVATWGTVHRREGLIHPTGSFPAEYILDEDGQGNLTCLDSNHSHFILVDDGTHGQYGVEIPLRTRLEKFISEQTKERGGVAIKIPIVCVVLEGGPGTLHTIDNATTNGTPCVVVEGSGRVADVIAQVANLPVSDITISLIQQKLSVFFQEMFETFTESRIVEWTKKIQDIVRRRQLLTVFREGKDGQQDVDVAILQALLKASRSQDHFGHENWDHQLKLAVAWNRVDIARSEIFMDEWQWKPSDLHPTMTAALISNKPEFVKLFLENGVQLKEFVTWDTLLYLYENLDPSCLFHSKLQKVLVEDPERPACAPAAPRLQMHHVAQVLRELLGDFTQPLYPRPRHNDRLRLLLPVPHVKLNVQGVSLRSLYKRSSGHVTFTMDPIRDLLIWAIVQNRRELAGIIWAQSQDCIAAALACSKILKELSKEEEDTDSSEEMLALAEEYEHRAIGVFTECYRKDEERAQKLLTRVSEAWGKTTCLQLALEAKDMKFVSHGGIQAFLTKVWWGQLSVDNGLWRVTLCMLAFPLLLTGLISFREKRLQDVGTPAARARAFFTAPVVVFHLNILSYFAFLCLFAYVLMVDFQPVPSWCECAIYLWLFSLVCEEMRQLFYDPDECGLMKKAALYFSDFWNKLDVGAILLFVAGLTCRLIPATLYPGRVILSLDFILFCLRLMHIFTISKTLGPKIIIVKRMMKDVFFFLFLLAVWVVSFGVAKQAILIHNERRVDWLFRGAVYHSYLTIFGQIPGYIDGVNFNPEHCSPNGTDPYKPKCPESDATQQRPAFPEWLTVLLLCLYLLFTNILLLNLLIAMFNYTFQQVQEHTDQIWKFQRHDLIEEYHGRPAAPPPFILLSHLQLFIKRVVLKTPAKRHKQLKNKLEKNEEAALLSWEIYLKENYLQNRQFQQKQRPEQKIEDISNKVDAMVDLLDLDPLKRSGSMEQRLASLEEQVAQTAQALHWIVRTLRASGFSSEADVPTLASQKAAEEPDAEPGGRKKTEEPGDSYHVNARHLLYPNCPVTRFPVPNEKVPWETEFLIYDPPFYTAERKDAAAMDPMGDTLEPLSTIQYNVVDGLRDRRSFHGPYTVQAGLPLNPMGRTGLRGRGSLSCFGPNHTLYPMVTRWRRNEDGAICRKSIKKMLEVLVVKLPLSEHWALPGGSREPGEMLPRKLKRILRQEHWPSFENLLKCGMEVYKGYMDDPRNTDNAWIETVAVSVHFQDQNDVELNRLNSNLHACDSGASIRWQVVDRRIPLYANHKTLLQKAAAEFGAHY
UniProt Q8IZ69: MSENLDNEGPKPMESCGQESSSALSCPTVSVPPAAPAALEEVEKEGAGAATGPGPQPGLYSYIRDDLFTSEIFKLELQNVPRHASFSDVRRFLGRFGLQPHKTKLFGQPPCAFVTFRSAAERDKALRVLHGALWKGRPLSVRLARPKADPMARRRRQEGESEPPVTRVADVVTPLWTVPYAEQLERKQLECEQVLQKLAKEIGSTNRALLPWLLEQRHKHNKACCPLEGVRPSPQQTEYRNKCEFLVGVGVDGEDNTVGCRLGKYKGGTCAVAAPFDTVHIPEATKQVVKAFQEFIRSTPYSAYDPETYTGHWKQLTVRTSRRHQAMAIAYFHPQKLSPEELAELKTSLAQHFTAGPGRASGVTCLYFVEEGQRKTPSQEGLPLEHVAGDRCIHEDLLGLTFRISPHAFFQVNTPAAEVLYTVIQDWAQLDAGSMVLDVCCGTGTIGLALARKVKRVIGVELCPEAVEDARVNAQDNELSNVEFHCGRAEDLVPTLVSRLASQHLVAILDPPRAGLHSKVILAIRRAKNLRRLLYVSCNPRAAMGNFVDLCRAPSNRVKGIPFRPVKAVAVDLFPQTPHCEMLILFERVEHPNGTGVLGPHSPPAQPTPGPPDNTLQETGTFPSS
UniProt Q14166: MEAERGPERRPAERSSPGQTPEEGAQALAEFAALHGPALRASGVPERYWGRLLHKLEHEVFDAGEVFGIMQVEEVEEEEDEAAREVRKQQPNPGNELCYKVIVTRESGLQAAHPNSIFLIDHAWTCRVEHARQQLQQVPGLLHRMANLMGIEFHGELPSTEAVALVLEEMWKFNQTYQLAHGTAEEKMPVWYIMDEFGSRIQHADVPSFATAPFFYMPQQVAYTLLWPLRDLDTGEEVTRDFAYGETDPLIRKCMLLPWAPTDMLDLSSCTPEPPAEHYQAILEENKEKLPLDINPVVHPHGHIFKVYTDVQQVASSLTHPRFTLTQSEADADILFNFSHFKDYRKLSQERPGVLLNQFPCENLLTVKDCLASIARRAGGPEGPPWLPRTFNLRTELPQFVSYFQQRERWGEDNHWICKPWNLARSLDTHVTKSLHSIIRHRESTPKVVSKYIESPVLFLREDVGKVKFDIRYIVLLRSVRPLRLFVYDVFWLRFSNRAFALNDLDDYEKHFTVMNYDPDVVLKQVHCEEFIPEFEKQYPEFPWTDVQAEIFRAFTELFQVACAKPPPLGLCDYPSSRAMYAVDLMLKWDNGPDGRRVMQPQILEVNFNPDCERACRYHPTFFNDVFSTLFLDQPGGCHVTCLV
UniProt Q9BRA2: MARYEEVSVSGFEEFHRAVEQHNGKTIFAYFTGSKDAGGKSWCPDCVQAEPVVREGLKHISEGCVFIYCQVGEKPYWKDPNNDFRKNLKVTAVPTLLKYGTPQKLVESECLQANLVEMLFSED
UniProt Q8N584: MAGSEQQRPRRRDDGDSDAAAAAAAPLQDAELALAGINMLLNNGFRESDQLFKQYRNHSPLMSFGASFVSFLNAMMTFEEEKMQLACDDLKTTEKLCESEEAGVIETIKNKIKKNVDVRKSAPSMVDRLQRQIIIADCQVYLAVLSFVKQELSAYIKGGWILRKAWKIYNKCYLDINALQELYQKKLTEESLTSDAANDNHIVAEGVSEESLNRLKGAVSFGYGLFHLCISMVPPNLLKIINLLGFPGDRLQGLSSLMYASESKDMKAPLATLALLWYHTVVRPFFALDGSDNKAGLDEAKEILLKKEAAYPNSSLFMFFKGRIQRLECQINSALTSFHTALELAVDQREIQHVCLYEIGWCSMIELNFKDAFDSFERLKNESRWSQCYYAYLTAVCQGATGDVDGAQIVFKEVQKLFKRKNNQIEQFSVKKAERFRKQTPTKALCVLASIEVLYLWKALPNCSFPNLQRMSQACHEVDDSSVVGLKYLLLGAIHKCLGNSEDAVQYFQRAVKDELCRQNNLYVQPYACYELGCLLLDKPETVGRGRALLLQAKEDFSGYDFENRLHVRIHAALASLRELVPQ
UniProt Q6PGP7, whole entry, looked up: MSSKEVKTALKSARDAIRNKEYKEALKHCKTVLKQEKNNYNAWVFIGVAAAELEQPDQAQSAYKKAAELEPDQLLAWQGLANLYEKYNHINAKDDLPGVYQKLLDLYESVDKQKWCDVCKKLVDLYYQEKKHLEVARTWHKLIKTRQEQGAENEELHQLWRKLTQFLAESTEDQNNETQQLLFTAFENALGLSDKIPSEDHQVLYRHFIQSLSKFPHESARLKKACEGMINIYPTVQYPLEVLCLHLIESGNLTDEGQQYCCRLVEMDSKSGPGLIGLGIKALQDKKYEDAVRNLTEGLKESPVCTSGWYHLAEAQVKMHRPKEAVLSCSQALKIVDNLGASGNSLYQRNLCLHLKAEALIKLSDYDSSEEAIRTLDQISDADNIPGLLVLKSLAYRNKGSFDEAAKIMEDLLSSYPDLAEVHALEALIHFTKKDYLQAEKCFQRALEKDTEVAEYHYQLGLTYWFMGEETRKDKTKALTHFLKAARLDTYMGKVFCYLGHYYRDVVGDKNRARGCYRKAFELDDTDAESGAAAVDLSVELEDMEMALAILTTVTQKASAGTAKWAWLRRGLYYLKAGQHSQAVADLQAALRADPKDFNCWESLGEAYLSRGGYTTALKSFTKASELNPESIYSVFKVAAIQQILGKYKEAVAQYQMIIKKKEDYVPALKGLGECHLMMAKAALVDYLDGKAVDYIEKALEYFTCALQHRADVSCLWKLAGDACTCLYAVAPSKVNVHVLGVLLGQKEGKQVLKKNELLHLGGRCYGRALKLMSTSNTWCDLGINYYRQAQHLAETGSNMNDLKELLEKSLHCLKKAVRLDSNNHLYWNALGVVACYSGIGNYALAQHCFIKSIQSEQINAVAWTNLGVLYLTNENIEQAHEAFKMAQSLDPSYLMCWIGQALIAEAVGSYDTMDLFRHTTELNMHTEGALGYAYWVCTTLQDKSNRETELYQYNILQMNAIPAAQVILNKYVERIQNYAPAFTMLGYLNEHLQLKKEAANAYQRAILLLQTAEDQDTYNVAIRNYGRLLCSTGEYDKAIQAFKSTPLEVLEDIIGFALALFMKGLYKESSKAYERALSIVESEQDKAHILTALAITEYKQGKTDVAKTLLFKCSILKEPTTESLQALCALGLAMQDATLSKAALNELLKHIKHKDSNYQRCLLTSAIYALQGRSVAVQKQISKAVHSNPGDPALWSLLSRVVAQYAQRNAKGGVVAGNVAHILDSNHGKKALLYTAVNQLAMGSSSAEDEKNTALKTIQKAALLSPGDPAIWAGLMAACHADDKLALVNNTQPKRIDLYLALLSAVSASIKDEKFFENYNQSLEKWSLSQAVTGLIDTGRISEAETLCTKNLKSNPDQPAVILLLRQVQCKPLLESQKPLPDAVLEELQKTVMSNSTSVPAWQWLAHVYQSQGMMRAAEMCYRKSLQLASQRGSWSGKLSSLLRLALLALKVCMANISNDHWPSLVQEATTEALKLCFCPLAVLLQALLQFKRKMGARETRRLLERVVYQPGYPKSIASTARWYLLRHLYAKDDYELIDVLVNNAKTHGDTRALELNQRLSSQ
UniProt Q9UNY4: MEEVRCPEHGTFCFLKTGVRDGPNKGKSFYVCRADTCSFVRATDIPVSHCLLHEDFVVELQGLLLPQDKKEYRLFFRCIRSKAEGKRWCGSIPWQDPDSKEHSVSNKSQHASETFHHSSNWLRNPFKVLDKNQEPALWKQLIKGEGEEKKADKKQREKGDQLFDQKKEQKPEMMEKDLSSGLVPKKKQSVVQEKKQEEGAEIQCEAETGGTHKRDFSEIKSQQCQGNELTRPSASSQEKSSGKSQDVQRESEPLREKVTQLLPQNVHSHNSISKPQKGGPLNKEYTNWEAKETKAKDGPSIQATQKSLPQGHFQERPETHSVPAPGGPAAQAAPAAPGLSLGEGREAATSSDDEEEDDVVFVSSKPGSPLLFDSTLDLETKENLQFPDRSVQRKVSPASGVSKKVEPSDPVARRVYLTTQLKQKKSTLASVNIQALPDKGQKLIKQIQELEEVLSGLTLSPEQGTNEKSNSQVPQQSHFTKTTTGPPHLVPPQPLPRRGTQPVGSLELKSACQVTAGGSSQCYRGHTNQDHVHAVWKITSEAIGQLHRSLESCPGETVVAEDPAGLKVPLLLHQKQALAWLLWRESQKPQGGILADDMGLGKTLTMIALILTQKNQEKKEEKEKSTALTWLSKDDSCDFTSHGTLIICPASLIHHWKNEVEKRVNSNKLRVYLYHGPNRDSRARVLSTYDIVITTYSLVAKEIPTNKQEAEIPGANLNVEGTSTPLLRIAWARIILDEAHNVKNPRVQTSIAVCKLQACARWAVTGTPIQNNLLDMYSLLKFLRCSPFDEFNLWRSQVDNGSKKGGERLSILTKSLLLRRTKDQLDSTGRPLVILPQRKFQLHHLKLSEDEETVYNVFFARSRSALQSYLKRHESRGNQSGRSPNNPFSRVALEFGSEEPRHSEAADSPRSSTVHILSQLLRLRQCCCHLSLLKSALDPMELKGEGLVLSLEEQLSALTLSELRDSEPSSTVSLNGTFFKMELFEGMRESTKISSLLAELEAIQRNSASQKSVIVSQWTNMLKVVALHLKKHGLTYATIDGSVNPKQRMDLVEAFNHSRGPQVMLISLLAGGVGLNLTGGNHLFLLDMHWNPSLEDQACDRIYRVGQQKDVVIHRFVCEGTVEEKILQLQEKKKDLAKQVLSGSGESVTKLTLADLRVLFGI

Compound: CC1Cc2ccccc2N1C(=O)C1CCCN(C1)C(=O)CCl (mixture of isomers) [TRIM25 ligand 11 (diastereomer mixture)]
Experiment: probe-labelled cysteine peptide fold change vs DMSO (competition) (log2 fold change); higher = less target engagement (more negative = stronger competition)
Conditions: THP-1, incubation time: 4 h
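Also: competitive chemoproteomic profiling in live THP-1 cells with an iodoacetamide desthiobiotin (IA-DTB) probe, comparing probe-labelled peptide intensities in compound-treated cells against DMSO-treated controls.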

| Target | probe-labelled cysteine peptide fold change (10 µM) | probe-labelled cysteine peptide fold change (50 µM) |
| --- | --- | --- |
| TRNT1_Q96Q11_373_YQGEHCLLK (UniProt Q96Q11) | -0.0617 | -0.146 |
| TWF2_Q6IBS0_141_HLSSCAAPAPLTSAER (UniProt Q6IBS0) | 0.263 | -0.167 |
| TSC2_P49815_1755_ICEEAAYSNPSLPLVHPPSHSK (UniProt P49815) | -0.214 | -0.281 |
| TRPM2_O94759_1341_GSLSCFGPNHTLYPMVTR (UniProt O94759) | -0.00461 | -0.0356 |
| TUFM_P49411_222_ELLTEFGYKGEETPVIVGSALCALEGRDPELGLK (UniProt P49411) | -0.0428 | 0.0764 |
| TRMT2A_Q8IZ69_486_VNAQDNELSNVEFHCGR (UniProt Q8IZ69) | 0.101 | -0.11 |
| TTLL12_Q14166_612_VMQPQILEVNFNPDCER (UniProt Q14166) | -0.045 | -0.126 |
| TXNDC17_Q9BRA2_46_SWCPDCVQAEPVVR (UniProt Q9BRA2) | -0.332 | -0.479 |
| TUT4_Q5TAX3_309_LCLIHIENIQGAHK (UniProt Q5TAX3) | 0.058 | 0.245 |
| TSR1_Q2NL82_126_ISLPEAMQLLQDRDTGTVHLNELGNTQNFMLLCPR (UniProt Q2NL82) | -0.19 | -0.448 |
| TTC39C_Q8N584_475_MSQACHEVDDSSVVGLK (UniProt Q8N584) | 0.0296 | -0.07 |
| TUT4_Q5TAX3_394_VITTFLPECSLR (UniProt Q5TAX3) | -0.149 | -0.0886 |
| TUT7_Q5VYS8_417_VSAGNENACLTTK (UniProt Q5VYS8) | 0.0456 | 0.0596 |
| TRMT2A_Q8IZ69_260_CEFLVGVGVDGEDNTVGCR (UniProt Q8IZ69) | 0.14 | 0.127 |
| TRMT2A_Q8IZ69_538_LLYVSCNPR (UniProt Q8IZ69) | -0.0417 | 0.0586 |
| TRMT44_Q8IYL2_482_EVGFTCGFHVDEDCLR (UniProt Q8IYL2) | 0.315 | 0.0306 |
| TTC7A_Q9ULT0_121_LSPQYMCEAMLILGK (UniProt Q9ULT0) | 0.28 | 0.274 |
| TWISTNB_Q3B726_47_YSCLVAGPHQR (UniProt Q3B726) | 0.137 | 0.113 |
| TTLL12_Q14166_126_ESGLQAAHPNSIFLIDHAWTCR (UniProt Q14166) | -0.0534 | 0.0185 |
| TRPM7_Q96QT4_200_ICTIGIAPWGVIENR (UniProt Q96QT4) | 0.104 | 0.122 |

Some of the entries above, set out differently.
Target | probe-labelled cysteine peptide fold change (10 µM) | probe-labelled cysteine peptide fold change (50 µM)
TRPM2_O94759_1341_GSLSCFGPNHTLYPMVTR (UniProt O94759) | -0.00461 | -0.0356
TUFM_P49411_222_ELLTEFGYKGEETPVIVGSALCALEGRDPELGLK (UniProt P49411) | -0.0428 | 0.0764
TRMT2A_Q8IZ69_486_VNAQDNELSNVEFHCGR (UniProt Q8IZ69) | 0.101 | -0.11
TTLL12_Q14166_612_VMQPQILEVNFNPDCER (UniProt Q14166) | -0.045 | -0.126
TXNDC17_Q9BRA2_46_SWCPDCVQAEPVVR (UniProt Q9BRA2) | -0.332 | -0.479
TUT4_Q5TAX3_309_LCLIHIENIQGAHK (UniProt Q5TAX3) | 0.058 | 0.245
TSR1_Q2NL82_126_ISLPEAMQLLQDRDTGTVHLNELGNTQNFMLLCPR (UniProt Q2NL82) | -0.19 | -0.448
TTC39C_Q8N584_475_MSQACHEVDDSSVVGLK (UniProt Q8N584) | 0.0296 | -0.07
TUT4_Q5TAX3_394_VITTFLPECSLR (UniProt Q5TAX3) | -0.149 | -0.0886

Next part.

| Target | probe-labelled cysteine peptide fold change (10 µM) | probe-labelled cysteine peptide fold change (50 µM) |
| --- | --- | --- |
| TSR2_Q969E8_114_EMASCITQR (UniProt Q969E8) | -0.0138 | -0.298 |
| TTC37_Q6PGP7_329_EAVLSCSQALK (UniProt Q6PGP7) | -0.103 | -0.0728 |
| TTC28_Q96AY4_274_TLGDQTGECR (UniProt Q96AY4) | 0.00414 | 0.121 |
| TTC37_Q6PGP7_1422_AAEMCYR (UniProt Q6PGP7) | -0.0765 | 0.13 |
| TUBGCP2_Q9BSJ2_469_ECGHDVTCPVAK (UniProt Q9BSJ2) | -0.046 | -0.0198 |
| TTLL12_Q14166_418_WGEDNHWICK (UniProt Q14166) | 0.0917 | 0.0468 |
| TSC2_P49815_791_EMVYCLEQGLIHR (UniProt P49815) | 0.209 | 0.151 |
| TSC2_P49815_1026_NLHLELTETCLDMMAR (UniProt P49815) | 0.155 | 0.166 |
| TTC4_O95801_160_GALCHLELK (UniProt O95801) | -0.118 | 0.0976 |
| TTC1_Q99614_28_VTDTQEAECAGPPVPDPKNQHSQSK (UniProt Q99614) | -0.236 | -0.443 |
| TRRAP_Q9Y4A5_2876_EALVQVEVSCPK (UniProt Q9Y4A5) | 0.177 | 0.137 |
| TTF2_Q9UNY4_204_KQEEGAEIQCEAETGGTHK (UniProt Q9UNY4) | -0.167 | -0.353 |
| TSPYL5_Q86VY4_153_KAPETCSTAGR (UniProt Q86VY4) | -0.142 | -0.0577 |
| TWSG1_Q9GZX9_185_ISCESMGASK (UniProt Q9GZX9) | -0.181 | -0.0805 |
| TRPM2_O94759_72_ECVYFVESSK (UniProt O94759) | 0.0366 | 0.0436 |
| TTC21B_Q7Z4L5_72_QDVSLCSLLALIYAHK (UniProt Q7Z4L5) | 0.155 | 0.138 |
| TTF2_Q9UNY4_522_SACQVTAGGSSQCYR (UniProt Q9UNY4) | 0.174 | -0.0617 |
| TTF2_Q9UNY4_37_ADTCSFVR (UniProt Q9UNY4) | -0.104 | 0.162 |
| TTC14_Q96N46_165_DIAHLEITALCPLR (UniProt Q96N46) | 0.0661 | 0.0914 |
